According to the supplement of paper PMC10849652:
The other results are listed elsewhere or left out.

The chains behind the UniProt entries cited, without tags or fusion partners. Where a name states a change or a piece, a line headed by the entry shows the natural chain unless it says otherwise.
UniProt O00139: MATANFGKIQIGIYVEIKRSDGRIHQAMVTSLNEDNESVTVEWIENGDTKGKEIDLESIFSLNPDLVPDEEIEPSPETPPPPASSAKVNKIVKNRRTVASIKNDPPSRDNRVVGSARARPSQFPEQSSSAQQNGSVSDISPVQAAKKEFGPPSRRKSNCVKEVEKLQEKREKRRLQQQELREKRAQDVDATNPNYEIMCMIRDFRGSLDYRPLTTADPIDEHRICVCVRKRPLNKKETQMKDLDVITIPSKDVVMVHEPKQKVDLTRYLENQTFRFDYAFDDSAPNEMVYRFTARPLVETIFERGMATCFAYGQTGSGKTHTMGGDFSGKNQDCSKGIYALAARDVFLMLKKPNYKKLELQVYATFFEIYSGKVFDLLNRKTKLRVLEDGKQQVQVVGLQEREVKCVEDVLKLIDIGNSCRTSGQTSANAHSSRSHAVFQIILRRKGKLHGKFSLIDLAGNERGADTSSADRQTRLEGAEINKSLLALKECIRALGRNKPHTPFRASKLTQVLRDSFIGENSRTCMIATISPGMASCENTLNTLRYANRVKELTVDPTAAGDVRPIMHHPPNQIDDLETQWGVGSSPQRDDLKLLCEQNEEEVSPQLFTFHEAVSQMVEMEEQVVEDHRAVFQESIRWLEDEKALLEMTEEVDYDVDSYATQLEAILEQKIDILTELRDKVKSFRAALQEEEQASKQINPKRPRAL
UniProt Q9Y664: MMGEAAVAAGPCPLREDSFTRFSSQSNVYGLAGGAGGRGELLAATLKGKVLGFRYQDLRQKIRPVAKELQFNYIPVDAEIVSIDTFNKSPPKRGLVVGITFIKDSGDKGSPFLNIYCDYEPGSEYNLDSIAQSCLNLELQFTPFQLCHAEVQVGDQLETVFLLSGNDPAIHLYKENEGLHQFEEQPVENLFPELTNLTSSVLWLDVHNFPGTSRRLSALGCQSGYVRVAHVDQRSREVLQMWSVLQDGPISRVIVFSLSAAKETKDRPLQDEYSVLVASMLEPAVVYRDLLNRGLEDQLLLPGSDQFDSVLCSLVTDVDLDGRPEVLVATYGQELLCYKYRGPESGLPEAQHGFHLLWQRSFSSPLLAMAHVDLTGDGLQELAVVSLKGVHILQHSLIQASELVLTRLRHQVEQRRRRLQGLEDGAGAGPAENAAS
UniProt Q9UHA4, whole entry, looked up: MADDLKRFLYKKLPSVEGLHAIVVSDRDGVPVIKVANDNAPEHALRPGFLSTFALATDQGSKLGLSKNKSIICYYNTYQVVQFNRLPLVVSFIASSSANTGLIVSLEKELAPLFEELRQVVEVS
UniProt Q13351: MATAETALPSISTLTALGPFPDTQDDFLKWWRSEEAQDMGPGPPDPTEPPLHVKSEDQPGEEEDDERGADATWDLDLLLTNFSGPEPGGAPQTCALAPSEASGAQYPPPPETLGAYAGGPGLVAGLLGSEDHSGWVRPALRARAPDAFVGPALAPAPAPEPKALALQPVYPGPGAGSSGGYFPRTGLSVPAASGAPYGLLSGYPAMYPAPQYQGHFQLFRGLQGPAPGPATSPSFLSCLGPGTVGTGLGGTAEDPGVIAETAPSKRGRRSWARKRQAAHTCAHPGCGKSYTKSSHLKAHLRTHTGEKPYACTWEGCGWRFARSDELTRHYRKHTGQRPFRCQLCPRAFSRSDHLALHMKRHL
UniProt Q6ZV70: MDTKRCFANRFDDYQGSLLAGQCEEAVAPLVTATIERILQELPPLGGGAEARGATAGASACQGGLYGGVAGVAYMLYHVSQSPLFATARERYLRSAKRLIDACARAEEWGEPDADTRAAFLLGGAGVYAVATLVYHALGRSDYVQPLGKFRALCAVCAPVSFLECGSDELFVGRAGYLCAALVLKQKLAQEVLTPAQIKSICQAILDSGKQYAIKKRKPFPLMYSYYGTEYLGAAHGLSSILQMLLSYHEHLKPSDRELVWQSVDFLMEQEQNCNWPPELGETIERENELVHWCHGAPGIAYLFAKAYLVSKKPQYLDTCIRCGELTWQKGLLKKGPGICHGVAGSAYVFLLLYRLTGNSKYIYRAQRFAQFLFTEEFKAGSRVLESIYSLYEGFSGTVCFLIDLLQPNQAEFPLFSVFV
UniProt Q96Q89: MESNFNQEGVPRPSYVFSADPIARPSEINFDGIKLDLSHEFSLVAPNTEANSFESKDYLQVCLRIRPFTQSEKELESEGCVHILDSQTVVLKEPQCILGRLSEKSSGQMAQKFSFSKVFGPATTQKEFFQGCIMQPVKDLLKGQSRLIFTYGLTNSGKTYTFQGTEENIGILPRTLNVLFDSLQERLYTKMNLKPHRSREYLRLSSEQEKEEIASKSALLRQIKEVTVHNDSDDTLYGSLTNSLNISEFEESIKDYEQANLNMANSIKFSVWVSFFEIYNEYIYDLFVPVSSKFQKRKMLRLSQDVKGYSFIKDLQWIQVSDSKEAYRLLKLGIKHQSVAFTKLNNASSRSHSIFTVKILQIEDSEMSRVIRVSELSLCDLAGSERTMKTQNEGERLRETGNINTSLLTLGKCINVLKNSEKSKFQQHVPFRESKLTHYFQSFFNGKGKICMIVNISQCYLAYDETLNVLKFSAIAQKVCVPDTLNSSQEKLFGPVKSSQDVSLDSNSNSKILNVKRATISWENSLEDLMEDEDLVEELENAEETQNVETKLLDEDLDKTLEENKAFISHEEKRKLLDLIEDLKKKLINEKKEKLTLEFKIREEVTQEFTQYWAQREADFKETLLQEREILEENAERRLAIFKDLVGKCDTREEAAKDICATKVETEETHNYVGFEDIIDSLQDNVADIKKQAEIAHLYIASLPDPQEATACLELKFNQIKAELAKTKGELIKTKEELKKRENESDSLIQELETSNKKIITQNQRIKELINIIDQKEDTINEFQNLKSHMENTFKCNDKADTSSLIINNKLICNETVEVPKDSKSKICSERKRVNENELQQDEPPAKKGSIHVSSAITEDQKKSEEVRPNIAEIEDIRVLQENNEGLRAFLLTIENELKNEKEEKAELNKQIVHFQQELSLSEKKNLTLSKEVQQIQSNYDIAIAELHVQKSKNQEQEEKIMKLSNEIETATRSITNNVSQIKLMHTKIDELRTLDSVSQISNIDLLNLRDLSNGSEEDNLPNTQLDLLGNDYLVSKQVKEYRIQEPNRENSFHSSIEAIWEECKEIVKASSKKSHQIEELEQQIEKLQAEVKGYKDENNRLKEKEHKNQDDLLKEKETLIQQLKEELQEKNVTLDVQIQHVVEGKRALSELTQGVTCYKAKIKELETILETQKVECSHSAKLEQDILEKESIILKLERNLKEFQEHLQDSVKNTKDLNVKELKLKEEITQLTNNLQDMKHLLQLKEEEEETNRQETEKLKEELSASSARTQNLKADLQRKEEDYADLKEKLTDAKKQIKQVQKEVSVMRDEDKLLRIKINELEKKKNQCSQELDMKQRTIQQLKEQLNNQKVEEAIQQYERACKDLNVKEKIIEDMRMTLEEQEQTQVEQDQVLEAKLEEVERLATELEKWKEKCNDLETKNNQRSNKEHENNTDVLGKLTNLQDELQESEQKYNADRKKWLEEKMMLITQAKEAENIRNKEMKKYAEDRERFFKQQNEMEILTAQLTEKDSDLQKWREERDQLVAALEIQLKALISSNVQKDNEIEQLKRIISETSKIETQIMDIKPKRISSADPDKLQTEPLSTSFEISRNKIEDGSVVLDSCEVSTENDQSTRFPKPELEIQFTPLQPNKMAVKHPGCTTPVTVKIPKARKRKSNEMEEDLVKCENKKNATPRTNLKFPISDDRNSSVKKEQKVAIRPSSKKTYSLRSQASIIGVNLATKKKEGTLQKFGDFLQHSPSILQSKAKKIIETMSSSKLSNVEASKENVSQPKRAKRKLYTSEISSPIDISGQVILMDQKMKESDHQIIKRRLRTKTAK
UniProt Q9NVR0: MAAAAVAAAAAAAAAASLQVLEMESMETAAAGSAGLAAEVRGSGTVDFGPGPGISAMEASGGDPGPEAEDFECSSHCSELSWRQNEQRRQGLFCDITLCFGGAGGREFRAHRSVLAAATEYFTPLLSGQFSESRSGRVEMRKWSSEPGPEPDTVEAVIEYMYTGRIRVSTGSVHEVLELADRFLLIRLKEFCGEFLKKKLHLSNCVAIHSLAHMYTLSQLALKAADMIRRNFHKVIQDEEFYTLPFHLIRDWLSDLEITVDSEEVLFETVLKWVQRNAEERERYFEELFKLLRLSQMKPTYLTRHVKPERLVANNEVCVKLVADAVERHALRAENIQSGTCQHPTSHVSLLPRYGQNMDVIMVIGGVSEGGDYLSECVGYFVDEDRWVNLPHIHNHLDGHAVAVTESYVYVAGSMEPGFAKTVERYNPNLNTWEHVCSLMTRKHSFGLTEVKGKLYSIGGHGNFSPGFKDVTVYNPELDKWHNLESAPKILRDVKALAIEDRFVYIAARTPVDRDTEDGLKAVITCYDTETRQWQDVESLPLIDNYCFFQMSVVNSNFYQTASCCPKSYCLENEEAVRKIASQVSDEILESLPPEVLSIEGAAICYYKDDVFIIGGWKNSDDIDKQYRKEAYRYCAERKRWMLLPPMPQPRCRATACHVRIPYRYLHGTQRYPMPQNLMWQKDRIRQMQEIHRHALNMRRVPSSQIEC
UniProt Q53G59: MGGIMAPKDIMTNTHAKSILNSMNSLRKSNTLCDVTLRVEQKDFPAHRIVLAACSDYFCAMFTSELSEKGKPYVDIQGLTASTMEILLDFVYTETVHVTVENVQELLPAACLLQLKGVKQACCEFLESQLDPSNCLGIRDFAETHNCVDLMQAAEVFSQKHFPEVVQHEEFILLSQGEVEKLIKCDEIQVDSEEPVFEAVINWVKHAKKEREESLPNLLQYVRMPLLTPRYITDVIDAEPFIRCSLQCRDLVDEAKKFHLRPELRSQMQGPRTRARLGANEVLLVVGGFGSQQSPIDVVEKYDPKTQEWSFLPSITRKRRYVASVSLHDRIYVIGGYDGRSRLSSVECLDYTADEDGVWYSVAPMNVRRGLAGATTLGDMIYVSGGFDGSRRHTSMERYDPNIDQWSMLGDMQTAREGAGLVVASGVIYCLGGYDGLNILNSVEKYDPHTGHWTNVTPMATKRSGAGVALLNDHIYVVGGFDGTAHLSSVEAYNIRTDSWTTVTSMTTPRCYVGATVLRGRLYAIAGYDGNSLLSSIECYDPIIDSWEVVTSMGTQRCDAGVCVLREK
UniProt Q8N6L1: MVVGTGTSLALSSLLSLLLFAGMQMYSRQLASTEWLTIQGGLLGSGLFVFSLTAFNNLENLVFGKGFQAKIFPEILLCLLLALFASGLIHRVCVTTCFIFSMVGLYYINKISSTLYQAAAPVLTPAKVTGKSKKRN
UniProt Q9Y2U9: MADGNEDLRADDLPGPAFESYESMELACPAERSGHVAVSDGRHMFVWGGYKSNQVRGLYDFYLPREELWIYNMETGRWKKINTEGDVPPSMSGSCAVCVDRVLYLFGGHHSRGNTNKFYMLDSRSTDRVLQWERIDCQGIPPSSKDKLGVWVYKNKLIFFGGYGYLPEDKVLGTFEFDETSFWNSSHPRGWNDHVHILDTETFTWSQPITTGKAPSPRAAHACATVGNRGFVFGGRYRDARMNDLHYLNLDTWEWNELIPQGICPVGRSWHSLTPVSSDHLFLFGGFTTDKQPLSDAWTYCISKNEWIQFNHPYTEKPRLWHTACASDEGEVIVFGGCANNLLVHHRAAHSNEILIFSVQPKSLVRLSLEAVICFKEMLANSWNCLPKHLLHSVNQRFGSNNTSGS
UniProt O95235: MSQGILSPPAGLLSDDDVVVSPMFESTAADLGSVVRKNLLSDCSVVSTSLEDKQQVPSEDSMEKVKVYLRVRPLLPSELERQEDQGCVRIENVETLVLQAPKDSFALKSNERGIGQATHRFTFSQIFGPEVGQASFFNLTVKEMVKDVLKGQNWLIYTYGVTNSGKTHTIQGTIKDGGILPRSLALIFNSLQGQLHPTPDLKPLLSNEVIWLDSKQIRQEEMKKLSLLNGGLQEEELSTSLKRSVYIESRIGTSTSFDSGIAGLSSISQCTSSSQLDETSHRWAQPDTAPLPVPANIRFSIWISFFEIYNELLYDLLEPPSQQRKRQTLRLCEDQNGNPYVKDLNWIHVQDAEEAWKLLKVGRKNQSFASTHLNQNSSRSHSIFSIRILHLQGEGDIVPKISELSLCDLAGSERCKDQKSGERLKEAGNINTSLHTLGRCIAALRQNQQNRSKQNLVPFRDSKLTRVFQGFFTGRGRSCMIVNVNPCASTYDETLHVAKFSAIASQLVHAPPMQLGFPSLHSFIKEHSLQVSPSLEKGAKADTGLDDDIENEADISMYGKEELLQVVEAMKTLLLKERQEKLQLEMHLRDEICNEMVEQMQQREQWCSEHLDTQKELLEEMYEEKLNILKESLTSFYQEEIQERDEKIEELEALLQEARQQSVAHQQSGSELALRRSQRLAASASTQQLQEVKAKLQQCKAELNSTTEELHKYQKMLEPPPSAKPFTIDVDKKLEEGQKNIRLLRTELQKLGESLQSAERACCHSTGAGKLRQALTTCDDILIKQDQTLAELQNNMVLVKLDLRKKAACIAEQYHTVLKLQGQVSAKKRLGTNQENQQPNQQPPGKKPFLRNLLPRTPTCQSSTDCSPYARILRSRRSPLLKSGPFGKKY

Legend:
Assay in all cases: log2 fold change, soluble protein after heating vs DMSO (PISA); higher = thermal stabilisation; K562 lysate, 10 uM; active = over 0.2 and 3.5 SD of the protein, either way, in both replicates (recomputed)
vemurafenib = compound: CCCS(=O)(=O)Nc1ccc(F)c(C(=O)c2c[nH]c3ncc(-c4ccc(Cl)cc4)cc23)c1F [vemurafenib]
How it was run: (§1)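 Soluble protein was defined as the supernatant remaining after 21,000xg for 90 min, following pooling of heated aliquots and adjustment to 0.5% NP-40 at 4°C. Before that, crude K562 extract at 1 mg/mL protein in PBS pH 7.4 with 1 mM MgCl2 was treated with 10 μM compound for 30 min and heated for 3 min across 48°C-58°C. Quantification used TMTpro 16plex LC-MS/MS with channel sums equalised, and values are log-two fold changes in thermal stability relative to solvent controls from duplicates.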

[1] = compound: CCCS(=O)(=O)Nc1ccc(F)c(C(=O)c2c[nH]c3ncc(Cl)cc23)c1F
How it was run: as §1

barasertib = compound: CCN(CCCOc1ccc2c(Nc3cc(CC(=O)Nc4cccc(F)c4)[nH]n3)ncnc2c1)CCOP(=O)(O)O [barasertib]
How it was run: as §1

[2] = compound: CC[C@@H]1C(=O)N(C)c2cnc(Nc3ccc(C(=O)NC4CCN(C)CC4)cc3OC)nc2N1C1CCCC1
How it was run: as §1

volasertib = compound: CC[C@@H]1C(=O)N(C)c2cnc(Nc3ccc(C(=O)N[C@H]4CC[C@H](N5CCN(CC6CC6)CC5)CC4)cc3OC)nc2N1C(C)C [volasertib]
How it was run: as §1

[3] = compound: CCn1c(C(=O)N(C2CC2)C2CC2)cc2c3c(ncn3C)c(Nc3cc(C)n(C)n3)nc21
How it was run: as §1

[4] = compound: CCn1cc(-c2ccnc3[nH]c(-c4cccc(CN(C)C)c4)cc23)c(-c2ccc(NC(=O)N(C)C)cc2)n1
How it was run: as §1

[5] = compound: CN1CCC(CNc2ccc3ncc(-c4cccc(OC(F)(F)F)c4)n3n2)CC1
How it was run: as §1

saracatinib = compound: CN1CCN(CCOc2cc(OC3CCOCC3)c3c(Nc4c(Cl)ccc5c4OCO5)ncnc3c2)CC1 [saracatinib]
How it was run: as §1

sotrastaurin = compound: CN1CCN(c2nc(C3=C(c4c[nH]c5ccccc45)C(=O)NC3=O)c3ccccc3n2)CC1 [sotrastaurin]
How it was run: as §1

alvocidib = compound: CN1CC[C@H](c2c(O)cc(O)c3c(=O)cc(-c4ccccc4Cl)oc23)[C@H](O)C1 [alvocidib]
How it was run: as §1

Tubastatin A = compound: CN1CCc2c(c3ccccc3n2Cc2ccc(C(=O)NO)cc2)C1 [Tubastatin A]
How it was run: as §1

[6] = compound: CNC(=O)C1=CC=CC=C1NC2=NC(=NC=C2Cl)NC3=C(C=C(C=C3)N4CCOCC4)OC
How it was run: as §1

defactinib = compound: CNC(=O)c1ccc(Nc2ncc(C(F)(F)F)c(NCc3nccnc3N(C)S(C)(=O)=O)n2)cc1 [defactinib]
How it was run: as §1

[7] = compound: CNc1nc(-c2ccc3c(N)n[nH]c3c2)cc(N2C[C@@H](C(=O)NC3CCCCC3)CC[C@H]2C)n1
How it was run: as §1

encorafenib = compound: COC(=O)N[C@@H](C)CNc1nccc(-c2cn(C(C)C)nc2-c2cc(Cl)cc(NS(C)(=O)=O)c2F)n1 [encorafenib]
How it was run: as §1

[8] = compound: COC(=O)[C@H](CCSC)NC(=O)C1=C(C=C(C=C1)NC[C@H](CS)N)C2=CC=CC=C2
How it was run: as §1

alisertib = compound: COc1cc(Nc2ncc3c(n2)-c2ccc(Cl)cc2C(c2c(F)cccc2OC)=NC3)ccc1C(=O)O [alisertib]
How it was run: as §1

[9] = compound: COc1cc2nc(-c3cc(F)ccc3O)nc(N[C@@H]3CNC[C@H]3C(C)(C)O)c2cc1OC
How it was run: as §1

gefitinib = compound: COc1cc2ncnc(Nc3ccc(F)c(Cl)c3)c2cc1OCCCN1CCOCC1 [gefitinib]
How it was run: as §1

Measured: log2 fold change

KIF2A isoform 4 (UniProt O00139)
inactive: vemurafenib -0.006 | [1] 0 | barasertib -0.014 | [2] -0.117 | volasertib -0.032 | [3] 0.042 | [4] -0.013 | [5] 0.009 | saracatinib 0.021 | sotrastaurin 0.023 | alvocidib 0 | Tubastatin A -0.148 | [6] 0.005 | defactinib 0.01 | [7] -0.024 | encorafenib 0.012 | [8] 0.093 | alisertib 0.004 | [9] -0.014 | gefitinib 0.011

KPTN (UniProt Q9Y664)
inactive: vemurafenib 0.123 | [1] 0.03 | barasertib -0.026 | [2] 0.032 | volasertib -0.023 | [3] -0.024 | [4] -0.048 | [5] 0.057 | saracatinib 0.008 | sotrastaurin 0.011 | alvocidib -0.038 | Tubastatin A -0.042 | [6] 0.032 | defactinib 0.054 | [7] 0.026 | encorafenib -0.048 | [8] 0.076 | alisertib -0.054 | [9] -0.013 | gefitinib 0.174

LAMTOR3 (UniProt Q9UHA4)
inactive: vemurafenib 0.056 | [1] 0.007 | barasertib 0.046 | [2] 0.049 | volasertib 0.019 | [3] -0.015 | [4] -0.19 | [5] 0 | saracatinib 0.015 | sotrastaurin 0.006 | alvocidib -0.003 | Tubastatin A 0.052 | [6] -0.002 | defactinib -0.05 | [7] 0.053 | encorafenib -0.017 | [8] -0.01 | alisertib 0.009 | [9] -0.021 | gefitinib 0.033

KYAT1 (UniProt Q16773)
inactive: vemurafenib 0.002 | [1] 0.001 | barasertib -0.048 | [2] 0.014 | volasertib 0.009 | [3] -0.051 | [4] -0.139 | [5] 0.113 | saracatinib -0.01 | sotrastaurin -0.001 | alvocidib -0.021 | Tubastatin A 0.016 | [6] -0.019 | defactinib -0.012 | [7] 0.016 | encorafenib 0 | [8] -0.027 | alisertib -0.025 | [9] 0.004 | gefitinib 0.031

KRAS (UniProt P01116)
active: [4] -0.278
inactive: vemurafenib 0.061 | [1] 0.019 | [2] 0.019 | volasertib 0.063 | [3] -0.053 | [5] 0.06 | saracatinib 0.066 | sotrastaurin 0.012 | alvocidib -0.071 | Tubastatin A 0.059 | [6] -0.048 | defactinib -0.01 | [7] -0.005 | encorafenib 0.01 | [8] 0.043 | alisertib -0.016 | [9] -0.042 | gefitinib 0.139

KLC3 isoform 3 (UniProt Q6P597)
inactive: [1] -0.016 | barasertib 0.354 | [2] -0.264 | volasertib -0.099 | [4] -0.097 | [5] -0.051 | sotrastaurin 0.108 | alvocidib -0.014 | encorafenib 0.011 | [8] 0.037 | alisertib 0.078 | [9] 0.053 | gefitinib 0.009

KDM4A (UniProt O75164)
inactive: vemurafenib -0.009 | barasertib -0.06 | [2] -0.056 | [3] -0.014 | [4] -0.063 | [5] 0.027 | saracatinib 0.046 | sotrastaurin -0.023 | alvocidib -0.022 | Tubastatin A -0.093 | [6] 0.064 | defactinib -0.027 | [7] -0.029 | encorafenib 0.021 | [8] 0.053 | alisertib 0.026 | gefitinib 0.012

KMT2E (UniProt Q8IZD2)
inactive: vemurafenib -0.055 | [2] 0.158 | [3] 0.021 | [4] 0.002 | [5] -0.081 | saracatinib 0.041 | sotrastaurin 0.064 | alvocidib 0.074 | Tubastatin A -0.031 | [6] -0.008 | defactinib -0.15 | [7] -0.018 | encorafenib -0.055 | [8] 0.027 | alisertib -0.069 | gefitinib 0.045

KRI1 (UniProt Q8N9T8)
inactive: vemurafenib -0.079 | barasertib -0.03 | [2] 0.005 | [3] 0.021 | [4] -0.005 | [5] -0.014 | saracatinib 0 | sotrastaurin 0.008 | alvocidib 0.017 | Tubastatin A -0.113 | [6] 0.016 | defactinib 0.019 | [7] -0.012 | encorafenib 0.038 | [8] 0.009 | alisertib 0.042 | gefitinib -0.106

KLF1 (UniProt Q13351)
inactive: [1] 0.062 | barasertib -0.035 | volasertib -0.011 | [3] -0.01 | Tubastatin A -0.07 | [6] 0.19 | alisertib 0.025 | [9] 0.038 | gefitinib -0.078

LANCL3 (UniProt Q6ZV70)
inactive: vemurafenib 0.106 | barasertib -0.062 | [2] -0.065 | [4] 0.046 | [5] -0.044 | alvocidib -0.092 | defactinib 0.056 | encorafenib 0.012 | [8] 0.183 | alisertib 0.058 | gefitinib -0.051

KLHL42 (UniProt Q9P2K6)
inactive: [1] -0.017 | barasertib 0.046 | volasertib 0.038 | [3] 0.061 | [4] -0.013 | [5] 0.073 | saracatinib 0 | sotrastaurin -0.114 | alvocidib -0.034 | Tubastatin A 0.023 | [6] 0.015 | [7] -0.094 | alisertib 0.027 | [9] 0.009 | gefitinib -0.031

KIF20B isoform 2 (UniProt Q96Q89)
inactive: vemurafenib 0.062 | [2] 0.03 | [3] -0.129 | [4] 0.143 | [5] 0.061 | saracatinib -0.041 | sotrastaurin 0.079 | alvocidib -0.1 | Tubastatin A -0.025 | [6] -0.064 | defactinib -0.013 | [7] 0.153 | encorafenib -0.098 | [8] 0.063 | alisertib 0.03 | gefitinib -0.209

KLHL11 (UniProt Q9NVR0)
inactive: vemurafenib 0.094 | barasertib -0.011 | [2] -0.027 | [3] 0.089 | [4] -0.022 | [5] 0.053 | saracatinib 0.032 | sotrastaurin 0.038 | alvocidib -0.028 | Tubastatin A -0.122 | [6] -0.011 | defactinib 0.001 | [7] -0.184 | encorafenib 0.058 | [8] 0.076 | alisertib -0.008 | gefitinib 0.036

KIF16B isoform 2 (UniProt Q96L93)
inactive: vemurafenib 0.127 | [2] 0.019 | [3] 0.107 | [4] -0.227 | [5] 0.156 | saracatinib 0.223 | sotrastaurin 0.011 | alvocidib -0.027 | Tubastatin A -0.191 | [6] 0.015 | defactinib -0.054 | [7] 0.123 | encorafenib 0.059 | [8] 0.141 | alisertib -0.062 | gefitinib -0.17

KLHL12 isoform 2 (UniProt Q53G59)
active: barasertib -0.413
inactive: vemurafenib 0.038 | [1] 0.061 | volasertib -0.045 | [3] 0.118 | saracatinib 0.064 | sotrastaurin -0.045 | Tubastatin A -0.156 | [6] -0.051 | defactinib -0.025 | [7] -0.02 | alisertib 0.023 | [9] 0.086 | gefitinib -0.048

KRTCAP2 isoform 2 (UniProt Q8N6L1)
inactive: vemurafenib -0.067 | [1] 0.005 | [2] 0.082 | volasertib 0.041 | [3] -0.043 | [4] -0.218 | [5] 0.193 | saracatinib -0.006 | sotrastaurin 0.059 | alvocidib -0.234 | Tubastatin A 0.016 | [6] -0.027 | defactinib -0.013 | [7] -0.047 | encorafenib -0.043 | [8] -0.126 | alisertib -0.052 | [9] -0.019 | gefitinib -0.115

KIAA1586 (UniProt Q9HCI6)
inactive: vemurafenib 0.024 | barasertib -0.407 | [3] -0.056 | saracatinib -0.008 | Tubastatin A 0.044 | [6] -0.222 | defactinib 0.08 | [7] -0.008 | alisertib -0.06 | gefitinib -0.277

KLHDC2 (UniProt Q9Y2U9)
inactive: vemurafenib 0.032 | sotrastaurin 0.04 | [6] -0.045 | defactinib -0.05

2 consecutive records out of the list so far, for reference:
KLHL12 isoform 2 (UniProt Q53G59)
active: barasertib -0.413
inactive: vemurafenib 0.038 | [1] 0.061 | volasertib -0.045 | [3] 0.118 | saracatinib 0.064 | sotrastaurin -0.045 | Tubastatin A -0.156 | [6] -0.051 | defactinib -0.025 | [7] -0.02 | alisertib 0.023 | [9] 0.086 | gefitinib -0.048

KRTCAP2 isoform 2 (UniProt Q8N6L1)
inactive: vemurafenib -0.067 | [1] 0.005 | [2] 0.082 | volasertib 0.041 | [3] -0.043 | [4] -0.218 | [5] 0.193 | saracatinib -0.006 | sotrastaurin 0.059 | alvocidib -0.234 | Tubastatin A 0.016 | [6] -0.027 | defactinib -0.013 | [7] -0.047 | encorafenib -0.043 | [8] -0.126 | alisertib -0.052 | [9] -0.019 | gefitinib -0.115

Carrying on.

KIF20A (UniProt O95235)
inactive: vemurafenib 0.047 | barasertib 0.004 | [2] -0.085 | [3] 0.105 | [4] -0.03 | [5] 0.148 | saracatinib 0.014 | sotrastaurin 0.038 | alvocidib -0.012 | Tubastatin A -0.177 | defactinib 0.043 | [7] 0.054 | encorafenib -0.049 | [8] 0.156 | alisertib -0.138 | gefitinib 0.009
